Drawing on publication PMC4341237, this text covers binding for one molecule.

The target of this assay is GFP-tagged EMC1 protein (EMC1::GFP) (Drosophila). Put plainly: co-IP; CHAPS extract of adult head membrane fraction (50 mM Tris-Cl, 500 mM NaCl, pH 7.5) bound to anti-GFP magnetic beads for 18 hr, rinsed with 0.1% CHAPS, eluates immunoblotted for GFP, Rh1, dPob and Cnx; Rh1-Gal4 driver with flies reared in vitamin A-deficient medium, or hs-Gal4 driver with flies in normal medium; sec61::GFP as negative control. On the technique in general: In western blotting, separated proteins are transferred to a membrane and probed.

No constants are given. Whether binding was seen depends on the method and setting. In cells and extracts the contact can be indirect.

B1: rhodopsin 1 (Rh1) apoprotein, immature form (receptor, UniProt P06002 1-373)
chain: MESFAVAAAQLGPHFAPLSNGSVVDKVTPDMAHLISPYWNQFPAMDPIWAKILTAYMIMIGMISWCGNGVVIYIFATTKSLRTPANLLVINLAISDFGIMITNTPMMGINLYFETWVLGPMMCDIYAGLGSAFGCSSIWSMCMISLDRYQVIVKGMAGRPMTIPLALGKIAYIWFMSSIWCLAPAFGWSRYVPEGNLTSCGIDYLERDWNPRSYLIFYSIFVYYIPLFLICYSYWFIIAAVSAHEKAMREQAKKMNVKSLRSSEDAEKSAEGKLAKVALVTITLWFMAWTPYLVINCMGLFKFEGLTPLNTIWGACFAKSAACYNPIVYGISHPKYRLALKEKCPCCVFGKVDDGKSSDAQSQATASEAESKA
modifications: N-glycosylated immature form
For the molecule B1, the binding result was “no binding”.
